Source: the supplement of paper PMC10849652
The other results are listed elsewhere or left out.

The chains behind the UniProt entries cited, without tags or fusion partners. Where a name states a change or a piece, a line headed by the entry shows the natural chain unless it says otherwise.
UniProt Q9NP81: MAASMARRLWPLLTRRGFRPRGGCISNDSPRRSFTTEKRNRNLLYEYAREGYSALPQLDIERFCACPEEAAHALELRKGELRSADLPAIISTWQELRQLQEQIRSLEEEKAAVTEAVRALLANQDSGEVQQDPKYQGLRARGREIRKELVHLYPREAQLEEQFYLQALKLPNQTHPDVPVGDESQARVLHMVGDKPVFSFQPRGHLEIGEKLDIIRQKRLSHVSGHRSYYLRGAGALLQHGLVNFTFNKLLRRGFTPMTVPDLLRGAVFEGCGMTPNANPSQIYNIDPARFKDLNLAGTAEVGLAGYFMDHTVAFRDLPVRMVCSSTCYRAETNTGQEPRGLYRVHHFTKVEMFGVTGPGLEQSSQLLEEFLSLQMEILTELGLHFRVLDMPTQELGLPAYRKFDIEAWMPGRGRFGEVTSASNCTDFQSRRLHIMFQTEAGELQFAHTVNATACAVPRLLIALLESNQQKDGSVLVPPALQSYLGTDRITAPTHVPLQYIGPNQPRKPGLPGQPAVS

Tests used:
Assay in all cases: log2 fold change, soluble protein after heating vs DMSO (PISA); higher = thermal stabilisation; K562 lysate, 10 uM; active = over 0.2 and 3.5 SD of the protein, either way, in both replicates (recomputed)
[1] = compound: C#Cc1cccc(Nc2ncnc3cc(OCCOC)c(OCCOC)cc23)c1 [erlotinib]
Procedure, shortened: (§1)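 Values give the log-two fold change in thermal stability against solvent controls, from duplicates. Crude K562 extract at 1 mg/mL protein, made by dounce homogenisation in PBS pH 7.4 with 1 mM MgCl2, was treated with 10 μM compound for 30 min. After 3 min heating across 48°C-58°C, aliquots were pooled, adjusted to 0.5% NP-40 at 4°C and centrifuged at 21,000xg for 90 min. The supernatant was measured by TMTpro 16plex LC-MS/MS with channel sums equalised.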

[2] = compound: C/C(=N\NC(=O)C1=CC(=CC=C1)S(=O)(=O)N2CCOCC2)/C3=C(C=CC(=C3)Cl)O
Procedure, shortened: as §1

[3] = compound: C1=CC(=CC=C1C2=NC3=C(N2)C=C(C=C3)C(=O)N)OC4=CC=C(C=C4)Cl
Procedure, shortened: as §1

[4] = compound: C1=CC2=C(C=CC(=C2)/C=C\3/C(=O)NC(=NCC4=CC=CS4)S3)N=C1
Procedure, shortened: as §1

[5] = compound: C1=CC2=NC=CN=C2C=C1/C=C/3\C(=O)NC(=O)S3
Procedure, shortened: as §1

[6] = compound: C1=CC=C(C=C1)C2=NC(=C(N2)C3=CC=NC=C3)C4=CC(=C(C=C4)Cl)O
Procedure, shortened: as §1

[7] = compound: C1=CC=C(C=C1)[C@H](COC2=CC3=C(C=C2)NC(=O)N3)NC(=O)C4=CC=CN(C4=O)CC5=CC(=C(C=C5)F)F
Procedure, shortened: as §1

[8] = compound: C1=CC=C2C(=C1)C3=NNC4=CC=CC(=C43)C2=O
Procedure, shortened: as §1

[9] = compound: C1CCN(C1)C(=O)NC2=CC=CC(=C2)NC3=NC=C(C(=N3)NCCC4=CN=CN4)Br
Procedure, shortened: as §1

[10] = compound: C1CN(CCC1(CC2=CC=C(C=C2)Cl)N)C3=NC=NC4=C3C=CN4
Procedure, shortened: as §1

[11] = compound: C1COCCN1CCN2C3=CC=CC=C3N=C2NC(=O)C4=CC(=CC=C4)[N+](=O)[O-] [IRAK-1-4 Inhibitor I]
Procedure, shortened: as §1

[12] = compound: C=CC(=O)N1CCC[C@@H](n2nc(-c3ccc(Oc4ccccc4)cc3)c3c(N)ncnc32)C1 [ibrutinib]
Procedure, shortened: as §1

[13] = compound: CC(=O)c1cnc2ccc(-c3cc(Cl)c(O)c(Cl)c3)nc2c1N[C@H]1CC[C@H](CN(C)C)CC1
Procedure, shortened: as §1

[14] = compound: CC(C)(C)Cn1c(N)nc2ccc(-c3[nH]c(C(C)(C)C)nc3-c3ccc(F)cc3)nc21 [ralimetinib]
Procedure, shortened: as §1

[15] = compound: CC(C)(O)CC(=O)NCCn1ccc2ncnc(Nc3ccc(Oc4cccc(C(F)(F)F)c4)c(Cl)c3)c21
Procedure, shortened: as §1

[16] = compound: CC(C)C1=C2N=C(C=C(N2N=C1)NCC3=CC=CC=C3)NCCCCCCN
Procedure, shortened: as §1

[17] = compound: CC1=C(C(CC(=O)N1)C2=CC=C(C=C2)C(F)(F)F)C(=O)NC3=C(C=C4C(=C3)C=NN4)F
Procedure, shortened: as §1

[18] = compound: CC1=C(C2=C(C=C1)C(=O)C3=CC=CC=C3N2CCCN)C
Procedure, shortened: as §1

[19] = compound: CC1=C(C=C(C=C1)NC(=O)C2=CC(=CC=C2)C(C)(C)C#N)NC3=CC4=C(C=C3)N=CN(C4=O)C
Procedure, shortened: as §1

[20] = compound: CC1=C(C=C(C=C1)NC(=O)C2=CC(=CC=C2)N(C)C)NC(=O)C3=CC=C(C=C3)O
Procedure, shortened: as §1

[21] = compound: CC1=C(SC2=C1C(=N[C@H](C3=NN=C(N32)C)CC(=O)N)C4=CC=C(C=C4)Cl)C
Procedure, shortened: as §1

[22] = compound: CC1=C2C(=CC=C1)N=C(N(C2=O)C3=CC=CC=C3C)CN4C=NC5=C(N=CN=C54)N
Procedure, shortened: as §1

[23] = compound: CC1=CC=C(C=C1)SC2=C3C=C(SC3=CN=C2)C(=O)N
Procedure, shortened: as §1

[24] = compound: CCCS(=O)(=O)Nc1ccc(F)c(C(=O)c2c[nH]c3ncc(-c4ccc(Cl)cc4)cc23)c1F [vemurafenib]
Procedure, shortened: as §1

[25] = compound: CCCS(=O)(=O)Nc1ccc(F)c(C(=O)c2c[nH]c3ncc(Cl)cc23)c1F
Procedure, shortened: as §1

[26] = compound: CCN(CCCOc1ccc2c(Nc3cc(CC(=O)Nc4cccc(F)c4)[nH]n3)ncnc2c1)CCOP(=O)(O)O [barasertib]
Procedure, shortened: as §1

[27] = compound: CC[C@@H]1C(=O)N(C)c2cnc(Nc3ccc(C(=O)NC4CCN(C)CC4)cc3OC)nc2N1C1CCCC1
Procedure, shortened: as §1

[28] = compound: CC[C@@H]1C(=O)N(C)c2cnc(Nc3ccc(C(=O)N[C@H]4CC[C@H](N5CCN(CC6CC6)CC5)CC4)cc3OC)nc2N1C(C)C [volasertib]
Procedure, shortened: as §1

[29] = compound: CCn1c(C(=O)N(C2CC2)C2CC2)cc2c3c(ncn3C)c(Nc3cc(C)n(C)n3)nc21
Procedure, shortened: as §1

[30] = compound: CCn1cc(-c2ccnc3[nH]c(-c4cccc(CN(C)C)c4)cc23)c(-c2ccc(NC(=O)N(C)C)cc2)n1
Procedure, shortened: as §1

[31] = compound: CN1CCC(CNc2ccc3ncc(-c4cccc(OC(F)(F)F)c4)n3n2)CC1
Procedure, shortened: as §1

[32] = compound: CN1CCN(CCOc2cc(OC3CCOCC3)c3c(Nc4c(Cl)ccc5c4OCO5)ncnc3c2)CC1 [saracatinib]
Procedure, shortened: as §1

[33] = compound: CN1CCN(c2nc(C3=C(c4c[nH]c5ccccc45)C(=O)NC3=O)c3ccccc3n2)CC1 [sotrastaurin]
Procedure, shortened: as §1

[34] = compound: CN1CC[C@H](c2c(O)cc(O)c3c(=O)cc(-c4ccccc4Cl)oc23)[C@H](O)C1 [alvocidib]
Procedure, shortened: as §1

[35] = compound: CN1CCc2c(c3ccccc3n2Cc2ccc(C(=O)NO)cc2)C1 [Tubastatin A]
Procedure, shortened: as §1

[36] = compound: CNC(=O)C1=CC=CC=C1NC2=NC(=NC=C2Cl)NC3=C(C=C(C=C3)N4CCOCC4)OC
Procedure, shortened: as §1

[37] = compound: CNC(=O)c1ccc(Nc2ncc(C(F)(F)F)c(NCc3nccnc3N(C)S(C)(=O)=O)n2)cc1 [defactinib]
Procedure, shortened: as §1

[38] = compound: CNc1nc(-c2ccc3c(N)n[nH]c3c2)cc(N2C[C@@H](C(=O)NC3CCCCC3)CC[C@H]2C)n1
Procedure, shortened: as §1

[39] = compound: COC(=O)N[C@@H](C)CNc1nccc(-c2cn(C(C)C)nc2-c2cc(Cl)cc(NS(C)(=O)=O)c2F)n1 [encorafenib]
Procedure, shortened: as §1

[40] = compound: COC(=O)[C@H](CCSC)NC(=O)C1=C(C=C(C=C1)NC[C@H](CS)N)C2=CC=CC=C2
Procedure, shortened: as §1

[41] = compound: COc1cc(Nc2ncc3c(n2)-c2ccc(Cl)cc2C(c2c(F)cccc2OC)=NC3)ccc1C(=O)O [alisertib]
Procedure, shortened: as §1

[42] = compound: COc1cc2nc(-c3cc(F)ccc3O)nc(N[C@@H]3CNC[C@H]3C(C)(C)O)c2cc1OC
Procedure, shortened: as §1

[43] = compound: COc1cc2ncnc(Nc3ccc(F)c(Cl)c3)c2cc1OCCCN1CCOCC1 [gefitinib]
Procedure, shortened: as §1

[44] = compound: CS(=O)(=O)CCNCc1ccc(-c2ccc3ncnc(Nc4ccc(OCc5cccc(F)c5)c(Cl)c4)c3c2)o1 [lapatinib]
Procedure, shortened: as §1

[45] = compound: CS(=O)(=O)N1CCN(Cc2cc3nc(-c4cccc5[nH]ncc45)nc(N4CCOCC4)c3s2)CC1 [pictilisib]
Procedure, shortened: as §1

[46] = compound: C[C@@H](Oc1cc(-c2cnn(C3CCNCC3)c2)cnc1N)c1c(Cl)ccc(F)c1Cl [crizotinib]
Procedure, shortened: as §1

[47] = compound: C[C@H](C1=CC=C(C=C1)C(=O)NC2=C3C=CNC3=NC=C2)N
Procedure, shortened: as §1

[48] = compound: C[C@H](Nc1ncnc2nc[nH]c12)c1cc2cccc(Cl)c2c(=O)n1-c1ccccc1 [duvelisib]
Procedure, shortened: as §1

[49] = compound: Cc1cc(Nc2cc(CN3CCOCC3)c3nc(C)c(Cc4ccc(Cl)cc4F)n3n2)n[nH]1 [gandotinib]
Procedure, shortened: as §1

[50] = compound: Cc1cc(Nc2cc(N3CCN(C)CC3)nc(Sc3ccc(NC(=O)C4CC4)cc3)n2)n[nH]1 [tozasertib]
Procedure, shortened: as §1

[51] = compound: Cc1ccc(-n2nc(C(C)(C)C)cc2NC(=O)Nc2ccc(OCCN3CCOCC3)c3ccccc23)cc1 [doramapimod]
Procedure, shortened: as §1

[52] = compound: Cc1ccc(NC(=O)c2ccc(CN3CC[C@H](N(C)C)C3)c(C(F)(F)F)c2)cc1Nc1nccc(-c2cncnc2)n1 [bafetinib]
Procedure, shortened: as §1

[53] = compound: Cc1cccc(CC(=O)N2CCc3c2ccc(-c2cn(C)c4ncnc(N)c24)c3F)n1
Procedure, shortened: as §1

[54] = compound: Cc1cn(-c2cc(NC(=O)c3ccc(C)c(Nc4nccc(-c5cccnc5)n4)c3)cc(C(F)(F)F)c2)cn1 [nilotinib]
Procedure, shortened: as §1

[55] = compound: Cc1nc(Nc2n[nH]c3c2CN(C(=O)N[C@H](CN(C)C)c2ccccc2)C3(C)C)c2sccc2n1
Procedure, shortened: as §1

[56] = compound: Cc1nc(Nc2ncc(C(=O)Nc3c(C)cccc3Cl)s2)cc(N2CCN(CCO)CC2)n1 [dasatinib]
Procedure, shortened: as §1

[57] = compound: Cc1ncc(-c2ccnc(Nc3ccc(S(C)(=O)=O)cc3)n2)n1C(C)C
Procedure, shortened: as §1

[58] = compound: Cc1sc2c(c1C)C(c1ccc(Cl)cc1)=N[C@@H](CC(=O)OC(C)(C)C)c1nnc(C)n1-2
Procedure, shortened: as §1

[59] = compound: Cn1cc(-c2ccc3c(c2)CCN3C(=O)Cc2cccc(C(F)(F)F)c2)c2c(N)ncnc21
Procedure, shortened: as §1

[60] = compound: Cn1cc(CNCC2CCN(c3ncc(C(=O)NO)cn3)CC2)c2ccccc21 [quisinostat]
Procedure, shortened: as §1

[61] = compound: Cn1cncc1[C@@](N)(c1ccc(Cl)cc1)c1ccc2c(c1)c(-c1cccc(Cl)c1)cc(=O)n2C [tipifarnib]
Procedure, shortened: as §1

[62] = compound: NC(=O)Nc1cc(-c2cccc(F)c2)sc1C(=O)N[C@H]1CCCNC1
Procedure, shortened: as §1

[63] = compound: NC(=O)c1cnc(N[C@@H]2CCCC[C@@H]2N)nc1Nc1cccc(-n2nccn2)c1
Procedure, shortened: as §1

[64] = compound: NC1(c2ccc(-c3nc4ccn5c(=O)[nH]nc5c4cc3-c3ccccc3)cc2)CCC1
Procedure, shortened: as §1

[65] = compound: NCC(=O)Nc1ccc(-n2nc(C(F)(F)F)cc2-c2ccc3c(ccc4ccccc43)c2)cc1
Procedure, shortened: as §1

[66] = compound: O=C(CCCCCCC(=O)Nc1ccccc1)NO [vorinostat]
Procedure, shortened: as §1

[67] = compound: O=C(O)c1ccc2c(c1)nc(Nc1cccc(Cl)c1)c1ccncc12 [silmitasertib]
Procedure, shortened: as §1

[68] = compound: O=C1NC(=O)C(c2cnc3ccccn23)=C1c1cn2c3c(cc(F)cc13)CN(C(=O)N1CCCCC1)CC2
Procedure, shortened: as §1

[69] = compound: c1ccc([C@@H]2C[C@H]2NC2CCNCC2)cc1
Procedure, shortened: as §1

[70] = compound: c1cn2cc(-c3ccc4cn[nH]c4c3)nc(Nc3ccc(N4CCOCC4)cc3)c2n1 [entospletinib]
Procedure, shortened: as §1

Measured: log2 fold change

SARS2 (UniProt Q9NP81)
inactive: [1] 0.004 | [2] 0.051 | [3] -0.042 | [4] -0.026 | [5] 0.045 | [6] 0.006 | [7] -0.041 | [8] 0.012 | [9] -0.033 | [10] 0.036 | [11] 0.01 | [12] -0.014 | [13] 0.025 | [14] -0.022 | [15] -0.022 | [16] 0.058 | [17] -0.024 | [18] -0.015 | [19] -0.01 | [20] 0.016 | [21] 0.038 | [22] 0 | [23] 0.013 | [24] 0.02 | [25] 0.022 | [26] -0.014 | [27] -0.002 | [28] -0.025 | [29] 0.006 | [30] -0.013 | [31] 0.02 | [32] -0.006 | [33] 0.048 | [34] 0.021 | [35] -0.046 | [36] 0.006 | [37] -0.017 | [38] 0.011 | [39] -0.051 | [40] 0.078 | [41] 0.041 | [42] 0 | [43] -0.025 | [44] 0.024 | [45] -0.049 | [46] -0.035 | [47] -0.006 | [48] -0.01 | [49] 0.007 | [50] -0.015 | [51] 0.028 | [52] -0.084 | [53] 0.037 | [54] 0.001 | [55] 0.003 | [56] -0.002 | [57] 0.036 | [58] 0.006 | [59] 0.01 | [60] -0.028 | [61] 0.009 | [62] 0.033 | [63] -0.019 | [64] 0.003 | [65] -0.002 | [66] -0.058 | [67] 0.046 | [68] 0.005 | [69] 0.001 | [70] 0.022
